Measurements reported in PubChem BioAssay AID686943 (Drosophila RNAi Screening Center, 2013).
Assay: 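Fly genes whose loss alters ERK activation after insulin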 (primary screen). Cell system: Drosophila S2R+ haemocyte-like cells expressing YFP-tagged ERK (Rolled). Knock-down reagent: long dsRNA against Drosophila genes. Treatment: insulin stimulation versus unstimulated cells; dose and duration not given. Measurement: 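Per-plate z-scores of phospho-ERK immunostaining normalised to YFP-tagged ERK, measured with and without insulin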. Direction: replicate 1, z-score of dpERK with insulin and replicate 2, z-score of dpERK with insulin: higher = more active ERK per ERK-YFP after insulin.
In all, the deposit lists about 23,000 reagents; below is a random part of those with a known target gene and a result. 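Extra replicates exist only for a retested subset of genes; insulin dose and duration not given; both raised and lowered dpERK matter.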 A plus sign joins genes that one reagent is predicted to hit. Not all columns of the deposit are shown. Reagent sequences are not shown. The record does not give: the amount of reagent, the time to read-out.

After knock-down of Lar [DRSC01707], the record shows replicate 1, z-score of dpERK with insulin -1.01; replicate 2, z-score of dpERK with insulin -1.24. After knock-down of Lar [DRSC03361], the screen gave replicate 1, z-score of dpERK with insulin -0.61; replicate 2, z-score of dpERK with insulin 0.22. shakB [DRSC20420] showed replicate 1, z-score of dpERK with insulin 0.26; replicate 2, z-score of dpERK with insulin 0.58. shakB [DRSC20423] gave replicate 1, z-score of dpERK with insulin 0.89; replicate 2, z-score of dpERK with insulin 0.08. Silencing of shakB [DRSC20492] gave: replicate 1, z-score of dpERK with insulin 0.56; replicate 2, z-score of dpERK with insulin 0.5. shakB [DRSC20585] scored replicate 1, z-score of dpERK with insulin 1.05; replicate 2, z-score of dpERK with insulin -0.09.

Silencing of shakB [DRSC21445] gave: replicate 1, z-score of dpERK with insulin -1.09; replicate 2, z-score of dpERK with insulin -0.83. Against shakB [DRSC22817] the deposit lists replicate 1, z-score of dpERK with insulin 0.62; replicate 2, z-score of dpERK with insulin 0.23. promL [DRSC08733] showed replicate 1, z-score of dpERK with insulin -0.02; replicate 2, z-score of dpERK with insulin -0.78. Depletion of CG43707 [DRSC00280] gave: replicate 1, z-score of dpERK with insulin 0.22; replicate 2, z-score of dpERK with insulin 0.11. Against CG43707 [DRSC22869], the entry reads replicate 1, z-score of dpERK with insulin -0.2; replicate 2, z-score of dpERK with insulin -1.26. With knock-down of CG43707 [DRSC22912], the screen gave replicate 1, z-score of dpERK with insulin 0.58; replicate 2, z-score of dpERK with insulin -0.29.

After knock-down of tal-1A + tal-2A + tal-AA + 1 more [DRSC12992], the record shows replicate 1, z-score of dpERK with insulin -0.06; replicate 2, z-score of dpERK with insulin 0.64.

An excerpt of the results above, for reference:
shakB [DRSC20585] | replicate 1, z-score of dpERK with insulin: 1.05; replicate 2, z-score of dpERK with insulin: -0.09
shakB [DRSC21445] | replicate 1, z-score of dpERK with insulin: -1.09; replicate 2, z-score of dpERK with insulin: -0.83
shakB [DRSC22817] | replicate 1, z-score of dpERK with insulin: 0.62; replicate 2, z-score of dpERK with insulin: 0.23
promL [DRSC08733] | replicate 1, z-score of dpERK with insulin: -0.02; replicate 2, z-score of dpERK with insulin: -0.78
CG43707 [DRSC00280] | replicate 1, z-score of dpERK with insulin: 0.22; replicate 2, z-score of dpERK with insulin: 0.11

The listing continues:
For CG31937 [DRSC00514] the deposit lists replicate 1, z-score of dpERK with insulin -0.58; replicate 2, z-score of dpERK with insulin -0.49. Depletion of f [DRSC19174] resulted in: replicate 1, z-score of dpERK with insulin 0.52; replicate 2, z-score of dpERK with insulin 1.05. For f [DRSC19516], the entry reads replicate 1, z-score of dpERK with insulin -0.96; replicate 2, z-score of dpERK with insulin -0.61. f [DRSC20331] showed replicate 1, z-score of dpERK with insulin 0.02; replicate 2, z-score of dpERK with insulin -0.26. CG6763 [DRSC16110] scored replicate 1, z-score of dpERK with insulin -0.41; replicate 2, z-score of dpERK with insulin 0. Knock-down of CG6126 [DRSC15971] resulted in: replicate 1, z-score of dpERK with insulin 0.29; replicate 2, z-score of dpERK with insulin -0.02.

With knock-down of bru3 [DRSC09280] the results were replicate 1, z-score of dpERK with insulin 0.09; replicate 2, z-score of dpERK with insulin -0.03. For bru3 [DRSC09291], the values are replicate 1, z-score of dpERK with insulin -0.51; replicate 2, z-score of dpERK with insulin -2.53. bru3 [DRSC09292] scored replicate 1, z-score of dpERK with insulin -0.46; replicate 2, z-score of dpERK with insulin 0.74. Depletion of bru3 [DRSC09687] resulted in: replicate 1, z-score of dpERK with insulin 0.09; replicate 2, z-score of dpERK with insulin 1.18. Silencing of bru3 [DRSC09887] gave: replicate 1, z-score of dpERK with insulin 0.32; replicate 2, z-score of dpERK with insulin 0.13. bru3 [DRSC22732] gave replicate 1, z-score of dpERK with insulin -0.02; replicate 2, z-score of dpERK with insulin 1.01.

Depletion of CG14131 [DRSC10135] resulted in: replicate 1, z-score of dpERK with insulin -0.68; replicate 2, z-score of dpERK with insulin 0.57. Silencing of FASN3 [DRSC20882] resulted in: replicate 1, z-score of dpERK with insulin -0.31; replicate 2, z-score of dpERK with insulin 0.37. CG14247 [DRSC14742] gave replicate 1, z-score of dpERK with insulin 1.53; replicate 2, z-score of dpERK with insulin -0.15. CG5928 [DRSC18391] showed replicate 1, z-score of dpERK with insulin 0.49; replicate 2, z-score of dpERK with insulin 0.06. CG13516 [DRSC04159] scored replicate 1, z-score of dpERK with insulin 0.3; replicate 2, z-score of dpERK with insulin 0. Knock-down of CG5781 [DRSC02893] came out at: replicate 1, z-score of dpERK with insulin 0.43; replicate 2, z-score of dpERK with insulin 0.42.
